# Data from PubChem BioAssay AID540276 (National Center for Advancing Translational Sciences (NCATS), 2011).
# About 5,400 (1.8%) of roughly 300,000 compounds were called active. The inconclusive results got no clear call from the source; some entries with a clear call stand among them for comparison. The call rests on the fitted dose curve; tested in HEK293 cells. Potencies beside an inconclusive call are fits to weak or partial responses and may not hold up.
# Experiment: qHTS for inhibitors of binding or entry into cells for Marburg Virus
# Conditions: Marburg virus pseudotyped entry inhibition, cell reporter; series mostly up to 37.8 µM
# Potency means the concentration at half of the fitted maximal effect.
row,Compound,Potency
1,COc1ccc(S(=O)(=O)N2CCCC2CNC(=O)C(=O)NCc2ccc3c(c2)OCO3)cc1 (stereo not drawn),"inconclusive: 11.2 µM [inhibitor, single point]"
2,CCOc1ccc(N2C(=O)CC(N(CCc3ccc(OC)c(OC)c3)C(=S)Nc3ccccc3)C2=O)cc1 (stereo not drawn),"inconclusive: 10 µM [inhibitor, partial curve, poor fit]"
3,COc1ccc(C(=O)C2CCCN(C(=O)c3ccccc3C(C)=O)C2)cc1F (stereo not drawn),inactive
4,O=C1c2c(O)ccc(O)c2C(=O)c2c(NCCNCCO)ccc(NCCNCCO)c21,active: 0.0562 µM
5,c1ccc2nc3c(nc2c1)OCC1CCCCN31 (stereo not drawn),inactive
6,CCOC(=O)Nc1ccc2c(c1)C(=NNC(N)=S)c1ccccc1-2,active: 12.6 µM
7,COc1ccc(C2CC(c3ccccc3)=NN2C(=O)COC(=O)c2cccc(S(=O)(=O)N(C)C)c2)cc1 (stereo not drawn),"inconclusive: 3.98 µM [activator, single point]"
8,Cc1cc2cc(CNC(=O)Nc3ccccc3)ccc2[nH]1,inactive
9,Cc1cc(C)n2nc(-c3ccc(Cl)cc3)nc2n1,"inconclusive: 3.16 µM [activator, single point]"
10,CCCCN(CC)CCNC(=O)c1cc2c(=O)[nH]c3ccc(C)cc3c2s1,active: 5.01 µM
11,O=C(N/N=C/c1c(O)n(CCc2ccc(F)cc2)c(=O)[nH]c1=O)c1ccncc1,"inconclusive: 35.5 µM [activator, single point]"
12,CCOC(=O)C(C)(C)N(Cc1cccc(C)c1)S(=O)(=O)c1cccc([N+](=O)[O-])c1,"inconclusive: 4.47 µM [inhibitor, partial curve, poor fit]"
13,C=CCc1ccc(OCC(O)CN2CCc3ccccc3C2)c(OC)c1 (stereo not drawn),"inconclusive: 22.4 µM [inhibitor, single point]"
14,O=C(Nc1cccc2ncccc12)c1ccc(-c2ccc(Cl)cc2Cl)o1,"inconclusive: 7.3 µM [inhibitor, partial curve]"
15,COc1cc(C)nc(Oc2ccc(/C=N/O)cc2)n1,"inconclusive: 1 µM [activator, single point]"
16,O=C(CN1CCC(O)(c2ccc3c(c2)OCO3)CC1)N1CCOCC1,"inconclusive: 0.92 µM [inhibitor, full curve, poor fit]"
17,CN(C)c1ccc(C(C(=O)NC(C)(C)C)N(C(=O)c2csnn2)C2CC2)cc1 (stereo not drawn),"inconclusive: 2.91 µM [inhibitor, partial curve, poor fit]"
18,COC(=O)C1CCN(Cc2ccc(OCCCN3CCN(c4ccc([N+](=O)[O-])cc4)CC3)cc2)CC1,"inconclusive: 31.6 µM [inhibitor, single point]"

# Quoted from the listing.
# Entry for CN(C)c1ccc(C(C(=O)NC(C)(C)C)N(C(=O)c2csnn2)C2CC2)cc1 (stereo not drawn) under Potency: inconclusive: 2.91 µM [inhibitor, partial curve, poor fit]
# Entry for O=C1c2c(O)ccc(O)c2C(=O)c2c(NCCNCCO)ccc(NCCNCCO)c21 under Potency: active: 0.0562 µM
